The test system of the test is NCI-H1876 complex spheroid viability. Nature of the test: Anticancer human tumor NCI-H1876 cell line growth inhibition [LSD1].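 Further: spheroids exposed to compounds for one week before readout; 100% = DMSO vehicle-treated spheroids so lower means fewer viable cells.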 The following applies: active compounds read low. From the text:
Multicellular complex tumor spheroid response to LSD1 Inhibitor Iadademstat in combination with a variety of drugs and investigational agents in selected tumor cell lines
The current study was undertaken to assess response to LSD1 inhibitors in combination with standard-of-care drugs and investigational agents in solid tumor complex spheroid models as well as in the K-562 leukemia. Complex spheroids include a stromal component modeled by human endothelial cells (HUVEC) and fibroblasts modeled by human mesenchymal stem cells (MSCs). The concentration ranges selected for each drug and investigational agent were based upon clinically achievable concentrations if the clinical Cmax of the agent was known.
Compounds. The drugs and investigational agents used in this study are listed on Table 1. All of the agents used, including staurosporine (NSC755774) and gemcitabine (NSC613327), were obtained from the Developmental Therapeutics Program, NCI. FDA-approved anticancer drugs are available from the NCI at http://dtp.nci.nih.gov/branches/dscb/oncology_drugset_explanation.html. Drugs and investigational agents were >95% pure by proton nuclear magnetic resonance (NMR) and liquid chromatography/mass spectrometry (LC/MS). […] If the clinical Cmax for an agent had not been determined, the highest concentration tested was 10 microM. […]

viability, T/C data for one molecule are collected here from PubChem BioAssay AID1918957 (Molecular Pharmacology Branch, DTP, NCI, 2023).

Several values for one entry are separate records, joined by “and”; a condition that tells them apart may be missing. Identical values can stand only once. This continues a long series; more values of the same kind are listed elsewhere.

`NC1CCC(NC2CC2c2ccccc2)CC1` (configuration not stated): the viability, T/C was 104% [middle of 22 runs] (compound 0.316 µM); 93.7% and 96.2% (compound 10 µM).
